For this assay, the target named is T1, GST-HsSec31a1041-1220 (human) (UniProt O94979).
T1 sequence: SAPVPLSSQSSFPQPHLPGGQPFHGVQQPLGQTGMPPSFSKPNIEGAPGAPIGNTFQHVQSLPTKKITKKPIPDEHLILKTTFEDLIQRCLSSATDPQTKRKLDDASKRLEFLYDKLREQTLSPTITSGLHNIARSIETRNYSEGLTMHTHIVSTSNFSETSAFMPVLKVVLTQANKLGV
The assay can be described thus: pull-down.

No constants are given. Whether binding was seen depends on the method and setting. Binding seen in cells or lysates may run through a third protein. Some binding calls cover weakened binding; strength is not graded here. Tags and fused reporters may be left off the sequences shown.

Here are results for 2 molecules from doi:10.1101/2025.05.07.652703.

B1: GFP-p125A (protein, UniProt Q9Y6Y8 1-1000)
chain: MAERKPNGGSGGASTSSSGTNLLFSSSATEFSFNVPFIPVTQASASPASLLLPGEDSTDVGEEDSFLGQTSIHTSAPQTFSYFSQVSSSSDPFGNIGQSPLTTAATSVGQSGFPKPLTALPFTTGSQDVSNAFSPSISKAQPGAPPSSLMGINSYLPSQPSSLPPSYFGNQPQGIPQPGYNPYRHTPGSSRANPYIAPPQLQQCQTPGPPAHPPPSGPPVQMYQMPPGSLPPVPSSVQSPAQQQVPARPGAPSVQVPSPFLLQNQYEPVQPHWFYCKEVEYKQLWMPFSVFDSLNLEEIYNSVQPDPESVVLGTDGGRYDVYLYDRIRKAAYWEEEPAEVRRCTWFYKGDTDSRFIPYTEEFSEKLEAEYKKAVTTNQWHRRLEFPSGETIVMHNPKVIVQFQPSSVPDEWGTTQDGQTRPRVVKRGIDDNLDEIPDGEMPQVDHLVFVVHGIGPVCDLRFRSIIECVDDFRVVSLKLLRTHFKKSLDDGKVSRVEFLPVHWHSSLGGDATGVDRNIKKITLPSIGRFRHFTNETLLDILFYNSPTYCQTIVEKVGMEINHLHALFMSRNPDFKGGVSVAGHSLGSLILFDILSNQKDLNLSKCPGPLAVANGVVKQLHFQEKQMPEEPKLTLDESYDLVVENKEVLTLQETLEALSLSEYFSTFEKEKIDMESLLMCTVDDLKEMGIPLGPRKKIANFVEHKAAKLKKAASEKKAVAATSTKGQEQSAQKTKDMASLPSESNEPKRKLPVGACVSSVCVNYESFEVGAGQVSVAYNSLDFEPEIFFALGSPIAMFLTIRGVDRIDENYSLPTCKGFFNIYHPLDPVAYRLEPMIVPDLDLKAVLIPHHKGRKRLHLELKESLSRMGSDLKQGFISSLKSAWQTLNEFARAHTSSTQLQEELEKVANQIKEEEEKQVVEAEKVVESPDFSKDEDYLGKVGMLNGGRRIDYVLQEKPIESFNEYLFALQSHLCYWESEDTALLLLKEIYRTMNISPEQPQH
Regarding B1, the binding entry is listed as “binds”.

B2: endogenous p125A (protein, UniProt Q9Y6Y8 1-1000)
chain: MAERKPNGGSGGASTSSSGTNLLFSSSATEFSFNVPFIPVTQASASPASLLLPGEDSTDVGEEDSFLGQTSIHTSAPQTFSYFSQVSSSSDPFGNIGQSPLTTAATSVGQSGFPKPLTALPFTTGSQDVSNAFSPSISKAQPGAPPSSLMGINSYLPSQPSSLPPSYFGNQPQGIPQPGYNPYRHTPGSSRANPYIAPPQLQQCQTPGPPAHPPPSGPPVQMYQMPPGSLPPVPSSVQSPAQQQVPARPGAPSVQVPSPFLLQNQYEPVQPHWFYCKEVEYKQLWMPFSVFDSLNLEEIYNSVQPDPESVVLGTDGGRYDVYLYDRIRKAAYWEEEPAEVRRCTWFYKGDTDSRFIPYTEEFSEKLEAEYKKAVTTNQWHRRLEFPSGETIVMHNPKVIVQFQPSSVPDEWGTTQDGQTRPRVVKRGIDDNLDEIPDGEMPQVDHLVFVVHGIGPVCDLRFRSIIECVDDFRVVSLKLLRTHFKKSLDDGKVSRVEFLPVHWHSSLGGDATGVDRNIKKITLPSIGRFRHFTNETLLDILFYNSPTYCQTIVEKVGMEINHLHALFMSRNPDFKGGVSVAGHSLGSLILFDILSNQKDLNLSKCPGPLAVANGVVKQLHFQEKQMPEEPKLTLDESYDLVVENKEVLTLQETLEALSLSEYFSTFEKEKIDMESLLMCTVDDLKEMGIPLGPRKKIANFVEHKAAKLKKAASEKKAVAATSTKGQEQSAQKTKDMASLPSESNEPKRKLPVGACVSSVCVNYESFEVGAGQVSVAYNSLDFEPEIFFALGSPIAMFLTIRGVDRIDENYSLPTCKGFFNIYHPLDPVAYRLEPMIVPDLDLKAVLIPHHKGRKRLHLELKESLSRMGSDLKQGFISSLKSAWQTLNEFARAHTSSTQLQEELEKVANQIKEEEEKQVVEAEKVVESPDFSKDEDYLGKVGMLNGGRRIDYVLQEKPIESFNEYLFALQSHLCYWESEDTALLLLKEIYRTMNISPEQPQH
Regarding B2, the binding entry is on record as “binds”.
